Measured values reported in PubChem BioAssay AID330 (DTP/NCI, 2004).
The list is a part of this screen's results and no random one: it gathers tests that were run many times, whatever their T/C, doses with no T/C, and many T/C values between a quarter and a half above the control. Further doses and runs are listed elsewhere. T/C gives the treated animals as a percentage of the vehicle group. Some entries give survivors of the animals treated and no T/C: the source holds a T/C of zero for them, seemingly a mark for toxic or unscored doses. Some survivor counts are full or nearly so, which does not show that the dose was tolerated: survival well below the control is almost never listed, so the zero probably covers shortened survival too. Counts of survivors are from the toxicity check (mostly the fifth day) where no day follows; animals may have died later. Schedule codes are those of the source, taken here to give the interval after Q, in days (D) or hours (H), and the number of doses after X. Where survival is the endpoint, this PubChem deposit counts one and a half times the control or more as active, and values a quarter to a half above the control carry no call in these data; other NCI protocols may use other cut-offs. Some entries were tested several times; the results are listed from low to high.

Test system: P388 leukemia ip, CD2F1 mice, survival T/C
Assay: NCI In Vivo Anticancer Drug Screen. Data for tumor model P388 Leukemia (intraperitoneal) in CD2F1 (CDF1) mice
Conditions: T/C endpoint: median survival time, higher T/C = longer survival
[1] = dose: 60.0 mg/kg/injection, schedule: Q01DX005 (ip), vehicle: Klucel (hydroxypropylcellulose) (HPC)
[2] = dose: 120.0 mg/kg/injection, schedule: Q01DX005 (ip), vehicle: Klucel (hydroxypropylcellulose) (HPC)
[3] = dose: 240.0 mg/kg/injection, schedule: Q01DX005 (ip), vehicle: Klucel (hydroxypropylcellulose) (HPC)
[4] = dose: 50.0 mg/kg/injection, schedule: Q01DX009 (ip), vehicle: saline with Tween-80
[5] = dose: 25.0 mg/kg/injection, schedule: Q01DX009 (ip), vehicle: water

In the case of `COc1ccc(C(c2c(O)c3ccccc3oc2=O)N2CCOCC2)c(OC)c1` (configuration not stated), the survivor count (dose: 240.0 mg/kg/injection, schedule: Q01DX005 (ip), vehicle: saline with Tween-80) is reported as 0 of 6.

For `NNC(=O)CCC(N)C(=O)O` (configuration not stated), the survivor count (dose: 200.0 mg/kg/injection, schedule: Q01DX009 (ip), vehicle: saline sonified) was 5 of 6.

For `C=C1C(=O)OC2/C=C(\COC(C)=O)CCC(OC(C)=O)C3=CC(OC3=O)C12` (configuration not stated), the survivor count (dose: 15.0 mg/kg/injection, schedule: Q01DX009 (ip), vehicle: Klucel (hydroxypropylcellulose) (HPC)) was 6 of 6, the survivor count (dose: 30.0 mg/kg/injection, schedule: Q01DX009 (ip), vehicle: Klucel (hydroxypropylcellulose) (HPC)) was 5 of 6 and the survivor count (dose: 60.0 mg/kg/injection, schedule: Q01DX009 (ip), vehicle: Klucel (hydroxypropylcellulose) (HPC)) was 1 of 6. The survivor count (dose: 120.0 mg/kg/injection, schedule: Q01DX009 (ip), vehicle: Klucel (hydroxypropylcellulose) (HPC)) was 0 of 6.

With `CC/C(=C(\c1ccccc1)c1ccc(OCCNC)cc1)c1ccccc1` the survivor count [1] was 1 of 6, the survivor count [2] was 1 of 6 and the survivor count [3] was 0 of 6.

`Cc1ncc([N+](=O)[O-])n1CCSC#N` was tested, and the survivor count (dose: 25.0 mg/kg/injection, schedule: Q04DX003 (ip), vehicle: saline with Tween-80) was 1 of 6.

With `O=C1c2ccccc2C(=O)c2sccc21` the survivor count (dose: 12.5 mg/kg/injection, schedule: Q01DX009 (ip), vehicle: saline with Tween-80) was 6 of 6 and the survivor count [4] was 6 of 6.

In the case of `CCCCCCCCCCCCCC#CC(=O)O`, the survivor count [4] is reported as 4 of 6, the survivor count (dose: 100.0 mg/kg/injection, schedule: Q01DX009 (ip), vehicle: saline with Tween-80) is reported as 3 of 6 and the survivor count (dose: 200.0 mg/kg/injection, schedule: Q01DX009 (ip), vehicle: saline with Tween-80) is reported as 1 of 6.

In the case of `O=C(CCl)N1c2ccccc2Sc2ccc(Cl)cc21`, the T/C [5] is reported as 125 % of control and the T/C (dose: 50.0 mg/kg/injection, schedule: Q01DX009 (ip), vehicle: water) is reported as 125 % of control.

With `Nc1cccc(S(=O)(=O)N/N=C/C(=O)O)c1` the survivor count (dose: 200.0 mg/kg/injection, schedule: Q01DX009 (ip), vehicle: water) was 5 of 6 and the survivor count (dose: 400.0 mg/kg/injection, schedule: Q01DX009 (ip), vehicle: water) was 1 of 6.

For `N=C(N)c1ccc(N=Nc2ccc(O)c3c2ccc[n+]3[O-])cc1`, the survivor count (dose: 50.0 mg/kg/injection, schedule: Q01DX005 (ip), vehicle: Klucel (hydroxypropylcellulose) (HPC)) was 2 of 6, the survivor count (dose: 100.0 mg/kg/injection, schedule: Q01DX005 (ip), vehicle: Klucel (hydroxypropylcellulose) (HPC)) was 0 of 6 and the survivor count (dose: 200.0 mg/kg/injection, schedule: Q01DX005 (ip), vehicle: Klucel (hydroxypropylcellulose) (HPC)) was 0 of 6.

`S=C(N/N=C/c1ccc(Cl)s1)NC12CC3CC(CC(C3)C1)C2` was tested, and the survivor count [1] was 6 of 6 and the survivor count [2] was 6 of 6.

For `CCCCCCCCCCCCCCCCCC[N+]1(CC)CCSCC1`, the survivor count (dose: 200.0 mg/kg/injection, schedule: Q01DX001 (ip), vehicle: saline with Tween-80) was 5 of 6.

With `COc1cccc2c1C(=O)c1c(O)c3c(c(O)c1C2=O)CC(O)(C(C)=O)CC3OC1CC(N)C(OC2CC(N)C(O)C(C)O2)C(C)O1` (configuration not stated) the T/C (dose: 0.78 mg/kg/injection, schedule: Q01DX009 (ip), vehicle: water) was 128 and 130 % of control, the T/C (dose: 1.56 mg/kg/injection, schedule: Q01DX009 (ip), vehicle: water) was 131 and 149 % of control and the T/C (dose: 3.13 mg/kg/injection, schedule: Q01DX009 (ip), vehicle: water) was 149 % of control. For the same compound, the T/C (dose: 6.25 mg/kg/injection, schedule: Q01DX009 (ip), vehicle: water) was 146 % of control, the survivor count (dose: 12.5 mg/kg/injection, schedule: Q01DX009 (ip), vehicle: water) was 6 of 6 and the survivor count [5] was 6 of 6.

With `COc1ccc(N/C=C2\C(=O)CCc3c2oc2cc(Cl)c(O)c(Cl)c32)cc1` the survivor count [3] was 2 of 6.
